Experimental data taken from publication PMC5510181.

Target: GST-GRB2 SH3-1 domain (N-terminal SH3)
Assay: pull-down; GST fusion proteins from E. coli incubated 3 h with detergent lysates of transfected 293T cells; SDS-PAGE and western blotting; only the target purified

binding: binds
B1: Flag-tagged SKAP1 (protein, UniProt Q86WV1 1-359)
chain: MQAAALPEEIRWLLEDAEEFLAEGLRNENLSAVARDHRDHILRGFQQIKARYYWDFQPQGGDIGQDSSDDNHSGTLGLSLTSDAPFLSDYQDEGMEDIVKGAQELDNVIKQGYLEKKSKDHSFFGSEWQKRWCVVSRGLFYYYANEKSKQPKGTFLIKGYGVRMAPHLRRDSKKESCFELTSQDRRSYEFTATSPAEARDWVDQISFLLKDLSSLTIPYEEDEEEEEKEETYDDIDGFDSPSCGSQCRPTILPGSVGIKEPTEEKEEEDIYEVLPDEEHDLEEDESGTRRKGVDYASYYQGLWDCHGDQPDELSFQRGDLIRILSKEYNMYGWWVGELNSLVGIVPKEYLTTAFEVEER

No constants are given. Whether binding was seen depends on the method and setting. Binding seen in cells or lysates may run through a third protein. A result given as binding can be weak or reduced; the word gives no strength. Tags and fused reporters may be left off the sequences shown.
